# Experimental data taken from PubChem BioAssay AID504834 (National Center for Advancing Translational Sciences (NCATS), 2011).
# In all, about 320,000 compounds went through this assay and about 22,000 (6.9%) were called active. The inconclusive results got no clear call from the source; some entries with a clear call stand among them for comparison. The call rests on the fitted dose curve; in most records, active means well fitted inhibition curve with a large enough effect; inconclusive means small, poorly fitted or top-dose-only effect, or another doubt; inactive means no such curve, though single readings can be large or run the other way. Potencies beside an inconclusive call are fits to weak or partial responses and may not hold up.
# Experiment: Primary qHTS for delayed death inhibitors of the malarial parasite plastid, 96 hour incubation
# Settings: P. falciparum luciferase reporter growth; series mostly up to 28.7 µM
# In short: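 96 h incubation, 37 C, 5% CO2, of luciferase-reporter P. falciparum-infected RBCs (2% hematocrit, 0.05% parasitemia final) with test compounds; endpoint luminescence.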
# Potency means the concentration at half of the fitted maximal effect.
row,Structure (SMILES),Potency
1,COc1ccc(/C=C2\SC(=S)N(CCC(=O)N(CCO)Cc3ccccc3)C2=O)cc1OC,inactive
2,CC(NC(=O)Cn1ccsc1=N)C12CC3CC(CC(C3)C1)C2 (centres undefined),"inconclusive: 5.86 µM [inhibitor, partial curve, poor fit]"
3,CCN(CC)CCCn1c(C)cc2c(c1=O)C(c1ccccc1)C(C#N)=C(N)O2 (centres undefined),"inconclusive: 0.0104 µM [inhibitor, partial curve, poor fit]"
4,Cc1ccc(NC(=O)CN(C)C(=O)COC(=O)COc2ccc(C#N)cc2)cc1,inactive
5,COc1cccc(-n2ccnc2SCC(=O)Nc2nccs2)c1,inactive
6,COc1cc(/C=N/Nc2snc(SC)c2C#N)ccc1O,inactive
7,CC(C)(C)c1ccc(OCC(=O)Nc2cccc(S(=O)(=O)NC3=NCCCCC3)c2)cc1,"inconclusive: 18.5 µM [inhibitor, single point]"
8,CCOc1cc(C(=O)Nc2ccc(NC(C)=O)cc2)ccc1OCC(=O)N1CCCCC1,active: 11.7 µM
9,Cc1ccc(NS(=O)(=O)c2coc(C(N)=O)c2)cc1F,inactive
10,CC1C(=O)C(C)(C)C(=O)OC1c1ccccc1 (centres undefined),inactive
11,COc1ccc(C(=O)NC(=S)N2CCN(c3ccccc3OC)CC2)cc1,inactive
12,CNC(=O)/C(=C\c1cccc(Oc2ccccc2)c1)NC(=O)c1ccccc1,"inconclusive: 3.29 µM [inhibitor, full curve, poor fit]"
13,Cc1cccc(NC(=O)CNC(=O)COC(=O)c2ccco2)c1C,inactive
14,CCC1CCCCN1S(=O)(=O)c1ccc(NC(=O)c2cccs2)cc1 (centres undefined),inactive
15,O=C(Nc1ccc2c(c1)N(Cc1ccccc1)C(=O)c1ccccc1S2)NC1CC1,active: 11.7 µM
16,O=C(Cc1ccccc1)Nc1ccc2oc(=O)ccc2c1,inactive
17,COc1ccc(C(NCC(=O)Nc2c(C)cccc2C)c2ccccc2)cc1 (centres undefined),"inconclusive: 11.7 µM [inhibitor, partial curve]"
18,COc1ccc(SCC(=O)Nc2ccccc2Cl)cc1,inactive
19,Cc1cccc2sc(N(CCCN(C)C)C(=O)c3ccc4ncsc4c3)nc12,"inconclusive: 5.22 µM [inhibitor, partial curve]"
20,Cc1ccc(CNC(=O)Cc2cn(C)c3ccccc23)cc1,"inconclusive: 18.5 µM [inhibitor, partial curve, poor fit]"
21,Cc1ccc(-c2cc(C(=O)Nc3cccnc3)c3ccccc3n2)s1,"inconclusive: 18.5 µM [inhibitor, single point]"
22,COc1cc(OC)nc(Oc2ccc(N)c(C)c2)n1,inactive
23,COc1ccc(/C=N/Nc2nn3cnnc3c3ccccc23)cc1,"inconclusive: 10.4 µM [inhibitor, single point]"
24,COCCCN1C(=O)c2[nH]nc(-c3ccccc3O)c2C1c1ccc(Cl)cc1 (centres undefined),"inconclusive: 13.1 µM [inhibitor, single point]"
25,Cc1cccn2c(=O)c3cc(S(=O)(=O)c4ccc(Br)cc4)c(=N)n(C4CCCC4)c3nc12,"inconclusive: 4.15 µM [inhibitor, partial curve, poor fit]"

row,Structure (SMILES),Potency
1,Cc1ccc(C(C)NC(=S)NC2CCCCC2)cc1C (centres undefined),active: 10.4 µM
2,CC(C)(C)c1ccc(S(=O)(=O)N2CC(C(=O)O)Oc3ccc(Cl)cc32)cc1 (centres undefined),inactive
3,Cc1ccc(Cn2ccc(NC(=O)c3cc(-c4cccs4)on3)n2)cc1,"inconclusive: 16.5 µM [inhibitor, single point]"
4,CC1CCCCN1C(=O)COc1ccc(F)cc1 (centres undefined),"inconclusive: 0.465 µM [inhibitor, full curve, poor fit]"
5,Cc1cc(N2CCCCC2)nc(N)n1,"inconclusive: 8.28 µM [inhibitor, partial curve, poor fit]"
6,O=C(N/C(=C\c1cccc(Br)c1)C(=O)N1CCOCC1)c1ccco1,inactive
7,COc1ccc(-c2[nH]c(-c3ccccc3)nc2SCC(=O)NCc2ccco2)cc1OC,active: 1.04 µM
8,COc1cc(OC)cc(C(=O)Oc2c(CN3CCOCC3)cc(Cl)c3cccnc23)c1,active: 0.928 µM
9,COc1ccc(CCN2Cc3c(N)cccc3C2=O)cc1OC,inactive
10,COc1ccc(/C=C2\SC(=S)N(Cc3cccnc3)C2=O)cc1C,"inconclusive: 18.5 µM [inhibitor, single point]"
11,O=C(O)c1ccc(COc2ccccc2/C=C2\NC(=O)N(Cc3ccccc3)C2=O)cc1,"inconclusive: 0.037 µM [inhibitor, full curve, poor fit]"
12,Cc1cccc(N2C(=O)c3cccc4c(N5CCCCC5)c([N+](=O)[O-])cc(c34)C2=O)c1C,inactive
13,COc1cccc(C2CC(=O)NC(SC)=C2C#N)c1 (centres undefined),"inconclusive: 20.8 µM [inhibitor, single point]"
14,O=C(/C=C/c1ccncc1)c1cc(Cl)ccc1O,active: 9.28 µM
15,Cc1c(C(=O)N2CCCC2)oc2ccc(Br)cc12,inactive
16,O=C(Nc1cccc(F)c1)Nc1ccc2c(c1)CCC2,active: 1.65 µM
17,O=C(COC(=O)c1ccco1)NCC1CCCO1 (centres undefined),"inconclusive: 8.28 µM [inhibitor, partial curve]"
18,COc1ccc(-c2[nH]ncc2CN2CCC(C(=O)N3CCOCC3)CC2)c(F)c1,"inconclusive: 1.65 µM [inhibitor, full curve, poor fit]"
19,O=c1c2ccc(Cl)cc2[nH]c(=S)n1CCC1=CCCCC1,"inconclusive: 18.5 µM [inhibitor, single point]"
20,CCOc1cc(/C=C2\COc3ccccc3C2=O)cc(Br)c1OCC(=O)N(C)C,active: 10.4 µM
21,C[C@H]1CS(=O)(=O)CCN1/N=C\c1ccc([N+](=O)[O-])o1,"inconclusive: 6.42 µM [inhibitor, single point]"
22,Cc1ccn2c(/C=N/OCc3ccc(F)cc3)c(-c3ccc(Cl)cc3)nc2c1,"inconclusive: 3.29 µM [inhibitor, partial curve, poor fit]"
23,COc1ccccc1/C=C/C1=NC(=C\C=C/c2ccccc2)/C(=O)O1,"inconclusive: 1.17 µM [inhibitor, partial curve, poor fit]"
24,Cc1ccc(S(=O)(=O)N2CCCOC2CNC(=O)C(=O)NCc2ccco2)cc1 (centres undefined),"inconclusive: 11.7 µM [inhibitor, partial curve, poor fit]"

# Reformatted with bars between the fields: four of the compounds above
row | Structure (SMILES) | Potency
2 | CC(NC(=O)Cn1ccsc1=N)C12CC3CC(CC(C3)C1)C2 (centres undefined) | inconclusive: 5.86 µM [inhibitor, partial curve, poor fit]
3 | CCN(CC)CCCn1c(C)cc2c(c1=O)C(c1ccccc1)C(C#N)=C(N)O2 (centres undefined) | inconclusive: 0.0104 µM [inhibitor, partial curve, poor fit]
4 | Cc1ccc(NC(=O)CN(C)C(=O)COC(=O)COc2ccc(C#N)cc2)cc1 | inactive
5 | COc1cccc(-n2ccnc2SCC(=O)Nc2nccs2)c1 | inactive
